In patent US10281459B2 (YEDA RESEARCH AND DEVELOPMENT CO. LTD., priority 2012, dated 2019):

Experiment: general procedure: Fmoc solid-phase peptide synthesis; Rink amide resin; PyBOP/DIEA
Conditions: conjugation step

| Substance | conjugation yield [%] |
| --- | --- |
| N3—(CH2)3-I-E-A-D-K(dansyl)-G-I-D | 30 |
| N3—(CH2)3-K(dansyl)-F-D-S-E-F-D-S-E | 48 |
| N3—(CH2)3-S-T-A-F-A-Y-G-K(dansyl) | 30 |
| N3—(CH2)3-K(dansyl)-S-T-G-V-S-T-G-V | 14 |
| N3—(CH2)3-Y-G-E-G-E-F-N-K(dansyl) | 55 |
